The match of structure and compound is tentative.
Experiments:
CSF1R = CSF1R (Homo sapiens, UniProt P07333); assay: Kinase comparative binding affinity assay
KIT = KIT (Homo sapiens, UniProt P10721); assay: Kinase comparative binding affinity assay
PDGFRA = PDGFRA (Homo sapiens, UniProt P16234); assay: Kinase comparative binding affinity assay
PDGFRB = PDGFRB (Homo sapiens, UniProt P09619); assay: Kinase comparative binding affinity assay
VEGFR1 = VEGFR1 (Homo sapiens, UniProt P17948); assay: Kinase comparative binding affinity assay
VEGFR2 = VEGFR2 (Homo sapiens, UniProt P35968); assay: Kinase comparative binding affinity assay
[1] = In vitro stability of dendrimer didesethyl sunitinib conjugates in human plasma; conditions: physiological conditions
Procedure: (§1) In vitro stability of dendrimer didesethyl sunitinib conjugates, D-4517 and D-4517.2, in human, mouse and rat plasma was evaluated at physiological conditions. […] At 48 hours, in all three plasma, less than 0.5% drug (by weight) was released from dendrimer drug conjugates.

Amino acid sequences for entries named in this document (tags omitted). Residues count along the entry.
UniProt P07333, 20-972 limits assumed: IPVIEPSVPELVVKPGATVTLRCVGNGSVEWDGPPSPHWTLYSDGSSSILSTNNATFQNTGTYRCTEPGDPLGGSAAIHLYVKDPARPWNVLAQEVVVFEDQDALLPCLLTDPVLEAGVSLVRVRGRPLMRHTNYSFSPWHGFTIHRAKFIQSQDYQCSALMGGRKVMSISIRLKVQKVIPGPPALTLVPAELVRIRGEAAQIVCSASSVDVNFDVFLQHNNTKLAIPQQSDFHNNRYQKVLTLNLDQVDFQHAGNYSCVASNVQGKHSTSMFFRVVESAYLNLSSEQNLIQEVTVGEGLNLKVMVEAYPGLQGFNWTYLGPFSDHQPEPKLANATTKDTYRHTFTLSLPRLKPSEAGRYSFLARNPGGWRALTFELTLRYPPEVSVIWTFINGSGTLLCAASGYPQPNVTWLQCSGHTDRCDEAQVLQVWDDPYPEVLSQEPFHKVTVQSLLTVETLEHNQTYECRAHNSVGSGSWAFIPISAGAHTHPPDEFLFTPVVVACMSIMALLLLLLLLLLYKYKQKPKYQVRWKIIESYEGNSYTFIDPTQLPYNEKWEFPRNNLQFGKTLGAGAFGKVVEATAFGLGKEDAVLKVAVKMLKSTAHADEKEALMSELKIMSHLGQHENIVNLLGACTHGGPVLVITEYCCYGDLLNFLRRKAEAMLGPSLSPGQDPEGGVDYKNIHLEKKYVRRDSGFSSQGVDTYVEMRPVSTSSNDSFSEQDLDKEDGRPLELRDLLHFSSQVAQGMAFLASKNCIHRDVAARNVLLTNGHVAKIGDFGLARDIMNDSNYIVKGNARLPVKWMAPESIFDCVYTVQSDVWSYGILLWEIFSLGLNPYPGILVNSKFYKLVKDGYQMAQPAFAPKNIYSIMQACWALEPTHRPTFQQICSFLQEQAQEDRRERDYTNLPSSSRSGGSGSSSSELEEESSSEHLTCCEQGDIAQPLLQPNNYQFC
UniProt P10721, 26-976 limits assumed: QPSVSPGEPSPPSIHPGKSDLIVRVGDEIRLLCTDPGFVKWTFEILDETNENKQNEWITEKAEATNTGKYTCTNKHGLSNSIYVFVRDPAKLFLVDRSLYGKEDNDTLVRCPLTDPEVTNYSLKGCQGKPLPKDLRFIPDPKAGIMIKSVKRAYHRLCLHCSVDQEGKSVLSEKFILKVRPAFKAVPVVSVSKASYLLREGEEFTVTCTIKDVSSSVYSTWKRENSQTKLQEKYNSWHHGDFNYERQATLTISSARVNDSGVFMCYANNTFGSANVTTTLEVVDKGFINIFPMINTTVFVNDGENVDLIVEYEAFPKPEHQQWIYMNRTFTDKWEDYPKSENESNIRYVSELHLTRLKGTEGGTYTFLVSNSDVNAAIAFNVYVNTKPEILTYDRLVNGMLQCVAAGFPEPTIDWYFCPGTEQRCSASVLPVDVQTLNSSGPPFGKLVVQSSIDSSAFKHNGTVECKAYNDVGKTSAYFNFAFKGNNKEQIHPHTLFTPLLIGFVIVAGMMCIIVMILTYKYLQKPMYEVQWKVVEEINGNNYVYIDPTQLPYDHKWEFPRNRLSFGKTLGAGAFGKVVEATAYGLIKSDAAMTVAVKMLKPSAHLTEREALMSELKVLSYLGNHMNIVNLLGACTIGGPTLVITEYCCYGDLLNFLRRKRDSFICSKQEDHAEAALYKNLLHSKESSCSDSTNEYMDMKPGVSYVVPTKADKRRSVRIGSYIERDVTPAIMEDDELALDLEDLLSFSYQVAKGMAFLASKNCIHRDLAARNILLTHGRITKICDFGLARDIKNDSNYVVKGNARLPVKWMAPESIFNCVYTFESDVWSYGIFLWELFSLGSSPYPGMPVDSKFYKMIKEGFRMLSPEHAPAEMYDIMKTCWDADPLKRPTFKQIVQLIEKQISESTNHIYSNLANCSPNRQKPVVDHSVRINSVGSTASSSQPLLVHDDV
UniProt P09619, 33-1106 limits assumed: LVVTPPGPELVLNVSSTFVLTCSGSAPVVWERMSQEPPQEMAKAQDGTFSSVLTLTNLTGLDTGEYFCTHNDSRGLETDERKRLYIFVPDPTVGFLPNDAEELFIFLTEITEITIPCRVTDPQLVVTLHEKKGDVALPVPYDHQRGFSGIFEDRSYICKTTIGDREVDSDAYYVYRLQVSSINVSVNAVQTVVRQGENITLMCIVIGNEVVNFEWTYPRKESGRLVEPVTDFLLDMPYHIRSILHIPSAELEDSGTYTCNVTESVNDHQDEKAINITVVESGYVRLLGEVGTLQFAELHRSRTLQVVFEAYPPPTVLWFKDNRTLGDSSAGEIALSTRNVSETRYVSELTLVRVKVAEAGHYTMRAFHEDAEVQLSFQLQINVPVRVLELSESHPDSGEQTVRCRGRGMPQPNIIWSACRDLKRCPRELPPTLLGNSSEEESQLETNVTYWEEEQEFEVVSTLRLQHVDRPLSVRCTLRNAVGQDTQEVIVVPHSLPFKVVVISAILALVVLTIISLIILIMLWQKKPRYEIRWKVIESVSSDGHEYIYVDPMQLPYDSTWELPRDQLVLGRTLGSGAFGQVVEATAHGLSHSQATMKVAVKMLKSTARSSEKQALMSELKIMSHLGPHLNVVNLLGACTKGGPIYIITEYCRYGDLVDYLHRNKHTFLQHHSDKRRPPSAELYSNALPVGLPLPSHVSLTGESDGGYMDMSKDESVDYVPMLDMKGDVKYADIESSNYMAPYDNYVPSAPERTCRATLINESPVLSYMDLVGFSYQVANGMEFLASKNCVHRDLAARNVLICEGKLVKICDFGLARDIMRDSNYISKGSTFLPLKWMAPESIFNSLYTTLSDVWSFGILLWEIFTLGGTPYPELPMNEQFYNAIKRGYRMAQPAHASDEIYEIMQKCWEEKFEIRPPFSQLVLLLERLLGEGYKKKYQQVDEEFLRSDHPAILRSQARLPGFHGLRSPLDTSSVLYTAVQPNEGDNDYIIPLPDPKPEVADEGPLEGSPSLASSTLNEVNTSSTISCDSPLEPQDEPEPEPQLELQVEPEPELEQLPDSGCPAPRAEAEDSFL
UniProt P17948, 27-1338 limits assumed: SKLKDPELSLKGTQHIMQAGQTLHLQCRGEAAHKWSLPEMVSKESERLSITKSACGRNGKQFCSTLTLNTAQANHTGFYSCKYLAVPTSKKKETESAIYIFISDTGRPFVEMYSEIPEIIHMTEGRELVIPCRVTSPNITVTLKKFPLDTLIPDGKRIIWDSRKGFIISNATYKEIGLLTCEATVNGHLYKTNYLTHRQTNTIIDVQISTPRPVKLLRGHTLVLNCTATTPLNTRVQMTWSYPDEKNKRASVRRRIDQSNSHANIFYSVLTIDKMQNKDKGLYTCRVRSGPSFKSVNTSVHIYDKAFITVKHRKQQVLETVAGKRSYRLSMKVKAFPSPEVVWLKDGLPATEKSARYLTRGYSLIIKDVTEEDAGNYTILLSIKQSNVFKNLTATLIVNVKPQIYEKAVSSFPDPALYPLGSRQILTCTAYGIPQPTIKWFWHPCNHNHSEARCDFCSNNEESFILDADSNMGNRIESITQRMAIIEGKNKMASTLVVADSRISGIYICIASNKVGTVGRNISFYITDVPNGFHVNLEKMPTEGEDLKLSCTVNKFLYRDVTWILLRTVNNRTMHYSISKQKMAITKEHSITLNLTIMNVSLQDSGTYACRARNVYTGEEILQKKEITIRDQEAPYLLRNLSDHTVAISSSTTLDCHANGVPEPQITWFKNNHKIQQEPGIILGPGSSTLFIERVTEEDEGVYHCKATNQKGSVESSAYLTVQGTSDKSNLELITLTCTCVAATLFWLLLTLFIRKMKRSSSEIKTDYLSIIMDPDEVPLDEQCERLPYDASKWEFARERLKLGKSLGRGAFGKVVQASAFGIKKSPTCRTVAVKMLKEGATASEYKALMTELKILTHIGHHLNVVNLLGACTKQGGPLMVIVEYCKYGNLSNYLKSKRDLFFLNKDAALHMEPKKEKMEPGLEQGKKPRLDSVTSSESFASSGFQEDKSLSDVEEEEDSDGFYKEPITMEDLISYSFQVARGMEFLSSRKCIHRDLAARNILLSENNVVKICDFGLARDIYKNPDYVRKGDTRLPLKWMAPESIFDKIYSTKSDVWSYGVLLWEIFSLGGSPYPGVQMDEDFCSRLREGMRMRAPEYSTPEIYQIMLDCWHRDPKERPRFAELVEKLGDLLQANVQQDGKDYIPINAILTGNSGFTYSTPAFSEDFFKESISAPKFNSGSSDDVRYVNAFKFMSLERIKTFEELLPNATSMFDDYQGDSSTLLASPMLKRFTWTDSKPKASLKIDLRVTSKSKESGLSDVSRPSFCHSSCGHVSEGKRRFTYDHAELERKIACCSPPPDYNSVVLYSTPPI
UniProt P35968, 20-1356 limits assumed: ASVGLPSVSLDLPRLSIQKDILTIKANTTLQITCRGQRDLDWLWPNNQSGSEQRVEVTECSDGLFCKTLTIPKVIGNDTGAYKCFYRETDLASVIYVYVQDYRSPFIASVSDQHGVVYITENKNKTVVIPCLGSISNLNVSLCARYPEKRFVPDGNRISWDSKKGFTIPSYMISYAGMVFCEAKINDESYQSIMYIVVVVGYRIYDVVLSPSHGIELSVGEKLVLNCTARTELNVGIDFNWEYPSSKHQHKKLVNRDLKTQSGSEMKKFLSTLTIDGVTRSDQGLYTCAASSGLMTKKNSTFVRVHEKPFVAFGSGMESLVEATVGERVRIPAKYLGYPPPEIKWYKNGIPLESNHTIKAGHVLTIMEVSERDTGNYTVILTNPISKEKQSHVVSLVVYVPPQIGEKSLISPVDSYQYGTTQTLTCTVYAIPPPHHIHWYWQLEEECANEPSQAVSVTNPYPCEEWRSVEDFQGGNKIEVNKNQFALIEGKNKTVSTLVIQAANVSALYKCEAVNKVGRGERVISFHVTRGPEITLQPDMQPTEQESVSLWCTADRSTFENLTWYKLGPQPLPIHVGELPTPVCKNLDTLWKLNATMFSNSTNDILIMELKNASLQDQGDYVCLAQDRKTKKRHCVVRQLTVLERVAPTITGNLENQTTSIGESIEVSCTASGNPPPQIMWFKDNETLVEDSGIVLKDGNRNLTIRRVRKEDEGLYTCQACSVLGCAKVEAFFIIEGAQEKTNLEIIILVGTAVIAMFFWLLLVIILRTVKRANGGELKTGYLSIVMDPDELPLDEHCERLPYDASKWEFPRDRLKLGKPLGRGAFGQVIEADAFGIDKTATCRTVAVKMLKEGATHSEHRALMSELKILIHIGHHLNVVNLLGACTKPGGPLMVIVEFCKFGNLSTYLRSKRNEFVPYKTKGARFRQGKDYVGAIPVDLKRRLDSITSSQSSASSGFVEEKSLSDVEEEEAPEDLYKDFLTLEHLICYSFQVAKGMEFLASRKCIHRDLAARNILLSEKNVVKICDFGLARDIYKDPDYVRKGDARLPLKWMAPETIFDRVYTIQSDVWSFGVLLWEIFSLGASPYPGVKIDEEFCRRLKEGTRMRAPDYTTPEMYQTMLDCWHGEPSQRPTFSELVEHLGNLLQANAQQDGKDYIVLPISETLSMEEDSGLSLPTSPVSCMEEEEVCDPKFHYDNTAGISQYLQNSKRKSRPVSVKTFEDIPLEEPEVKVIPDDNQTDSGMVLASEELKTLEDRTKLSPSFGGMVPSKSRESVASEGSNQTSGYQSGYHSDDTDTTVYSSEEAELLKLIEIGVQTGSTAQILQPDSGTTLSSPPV

[2] = In vitro stability of dendrimer didesethyl sunitinib conjugates in rat plasma; conditions: physiological conditions
Procedure: as §1

[3] = Size and zeta potential, Zetasizer Nano ZS

COC(=O)CCC/C(N)=C\NCCOCCOCCOCCC(=O)NCCNC(=O)c1c(C)[nH]c(C=C2C(=O)Nc3ccc(F)cc32)c1C
Kd (CSF1R): 82 nM
Kd (KIT): 3.4 nM
Kd (PDGFRA): 16 nM
Kd (PDGFRB): 11 nM
Kd (VEGFR1): 1100 nM
Kd (VEGFR2; VEGFR2): 27 nM
affinity for VEGFR2 (VEGFR2; without release of the active drug AVT-4517): nanomolar affinity
drug release (weight percentage) [1]: 2%
drug release (weight percentage) [2]: 4%
zeta potential ([3]; 0.2 mg/mL in 10 mM NaCl): +5.4±0.4 mV
size ([3]; 0.5 mg/mL in deionized water): 5.5±0.5 nm

— patent US20250009893A1
